In article PMC11387770 one finds binding data, which are given here for four molecules.

The chains behind the UniProt entries cited, without tags or fusion partners. Where a name states a change or a piece, a line headed by the entry shows the natural chain unless it says otherwise.
UniProt Q9BPZ7: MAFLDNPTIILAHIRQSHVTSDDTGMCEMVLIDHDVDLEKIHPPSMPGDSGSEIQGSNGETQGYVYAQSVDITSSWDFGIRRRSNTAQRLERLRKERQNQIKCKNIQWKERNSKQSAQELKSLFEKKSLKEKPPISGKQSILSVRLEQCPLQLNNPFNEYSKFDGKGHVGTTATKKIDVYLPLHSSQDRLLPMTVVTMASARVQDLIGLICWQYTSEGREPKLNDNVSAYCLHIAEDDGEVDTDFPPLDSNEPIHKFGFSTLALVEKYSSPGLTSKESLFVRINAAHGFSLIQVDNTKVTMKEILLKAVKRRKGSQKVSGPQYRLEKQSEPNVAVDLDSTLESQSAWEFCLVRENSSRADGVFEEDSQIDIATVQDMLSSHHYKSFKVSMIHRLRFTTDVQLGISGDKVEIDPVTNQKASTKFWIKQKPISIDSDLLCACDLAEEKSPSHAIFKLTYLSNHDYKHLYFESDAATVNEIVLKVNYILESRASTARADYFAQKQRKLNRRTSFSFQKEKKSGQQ

The target of test [1] is stress-activated protein kinase interacting protein 1 (SIN1) (human (endogenous in 293T)) (UniProt Q9BPZ7). The experiment in a line: co-IP; 293T cells with or without overexpressed CRLF1; precipitation with antibodies against AKT or SIN1 and protein A Sepharose beads; IP buffer 20 mM Tris pH 7.5, 150 mM NaCl, 1% Triton X-100, 1 mM EDTA; also with CRLF1 knock-down (Fig. 7C).

Test [2] addresses SIN1, ectopically expressed with CRLF1 variants (UniProt Q9BPZ7). The experiment in a line: co-IP; CRLF1 variants ectopically expressed with either AKT or SIN1 (Fig. 7H-J); which partner was precipitated is not told.

No constants are given. Whether binding was seen depends on the method and setting. In cells and extracts the contact can be indirect. Some entries that bind do so weakly or less than the wild type. For some of these results: Where a sequence is shown, tags or fusion partners need not be part of it.

B1: cytokine receptor-like factor 1 (CRLF1), full length, C-terminal His-tagged (protein, UniProt O75462 38-422)
chain: AHTAVISPQDPTLLIGSSLLATCSVHGDPPGATAEGLYWTLNGRRLPPELSRVLNASTLALALANLNGSRQRSGDNLVCHARDGSILAGSCLYVGLPPEKPVNISCWSKNMKDLTCRWTPGAHGETFLHTNYSLKYKLRWYGQDNTCEEYHTVGPHSCHIPKDLALFTPYEIWVEATNRLGSARSDVLTLDILDVVTTDPPPDVHVSRVGGLEDQLSVRWVSPPALKDFLFQAKYQIRYRVEDSVDWKVVDDVSNQTSCRLAGLKPGTVYFVQVRCNPFGIYGSKKAGIWSEWSHPTAASTPRSERPGPGGGACEPRGGEPSSGPVRRELKQFLGWLKKHAYCSNLSFRLYDQWRAWMQKSHKTRNQDEGILPSGRRGTARGPAR
Turning to B1, the binding result in test [1] is listed as “binds”.

B2: CRLF1 aa 1-326 (lacking the WSXWS motif) (domain or fragment, UniProt O75462 38-326)
chain: AHTAVISPQDPTLLIGSSLLATCSVHGDPPGATAEGLYWTLNGRRLPPELSRVLNASTLALALANLNGSRQRSGDNLVCHARDGSILAGSCLYVGLPPEKPVNISCWSKNMKDLTCRWTPGAHGETFLHTNYSLKYKLRWYGQDNTCEEYHTVGPHSCHIPKDLALFTPYEIWVEATNRLGSARSDVLTLDILDVVTTDPPPDVHVSRVGGLEDQLSVRWVSPPALKDFLFQAKYQIRYRVEDSVDWKVVDDVSNQTSCRLAGLKPGTVYFVQVRCNPFGIYGSKKAGI
As for B2, in test [2], the binding entry was “binds”.

B3: CRLF1 aa 132-236 (domain or fragment, UniProt O75462 132-236)
chain: GLPPEKPVNISCWSKNMKDLTCRWTPGAHGETFLHTNYSLKYKLRWYGQDNTCEEYHTVGPHSCHIPKDLALFTPYEIWVEATNRLGSARSDVLTLDILDVVTTD
Regarding B3, the binding entry in test [2] is “no binding”.

B4: CRLF1 aa 237-326 (domain or fragment, UniProt O75462 237-326)
chain: PPPDVHVSRVGGLEDQLSVRWVSPPALKDFLFQAKYQIRYRVEDSVDWKVVDDVSNQTSCRLAGLKPGTVYFVQVRCNPFGIYGSKKAGI
Take B4: the binding entry in test [2] is on record as “binds”.
